Data: PubChem BioAssay AID485298 (National Center for Advancing Translational Sciences (NCATS), 2010)
Hit rate of the full screen: of about 320,000 compounds, about 740 (0.23%) were called active. The inconclusive results got no clear call from the source; some entries with a clear call stand among them for comparison. Calls follow the shape of the dose curve; as a rule, active = well fitted activation curve with a large enough effect; inconclusive = small, poorly fitted or top-dose-only effect; inactive = no such curve, though single readings can be large or run the other way. A potency beside an inconclusive call is a rough fit, not a confirmed value.

Assay: qHTS Assay for Small Molecule Inhibitors of Mitochondrial Division or Activators of Mitochondrial Fusion; also: nearly all actives have a fitted effect of over 45% in size
Settings: S. cerevisiae fusion-defective mutant growth rescue, CellTiterGlo 48 h; series mostly up to 46.1 µM
Outline: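 S. cerevisiae fusion-defective temperature-sensitive mutants (e.g. fzo1-1, mgm1-5) grown 48 h at 37C in YPEG (ethanol/glycerol non-fermentable) medium with 23 nl compound per well; growth rescue read as CellTiterGlo luminescence.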
Potency is read from the fitted curve at half-maximal effect.

Row | Structure (SMILES) | Potency
1 | CCCCc1nnc(NC(=O)c2ccccc2OCc2c(C)noc2C)s1 | inconclusive: 6.31 µM [activator, partial curve]
2 | CCOc1ccc(NC(=O)CN(c2ccc(C)cc2)S(=O)(=O)c2c(C)nn(C)c2C)cc1 | inconclusive: 6.31 µM [activator, partial curve]
3 | O=C(N/N=C/c1ccncc1)c1ccccc1OCc1ccc(Br)cc1 | inconclusive: 22.4 µM [activator, single point]
4 | Cc1cc(Cn2nc(C(=O)NCc3cccc(Br)c3)cc2-c2ccccc2)on1 | inconclusive: 35.5 µM [activator, single point]
5 | O=C(O)CCC(=O)NNC(=O)CCC(=O)Nc1ccccc1 | inactive
6 | Cc1ccnc(NC(=O)c2ccc(Cl)c(NC(=O)C(C)Oc3ccccc3)c2)c1 (stereo unspecified) | inconclusive: 12.6 µM [activator, partial curve]
7 | Cc1c(C(=O)N(Cc2ccccc2)C(C)C)oc2ccc(S(=O)(=O)N3CCOCC3)cc12 | inconclusive: 11.2 µM [activator, partial curve, poor fit]
8 | Cc1sc2ncnc(N(C)Cc3cccs3)c2c1C | inactive
9 | O=C(CCC(=O)Nc1ccc(Cl)cc1Cl)N/N=C/c1ccc([N+](=O)[O-])o1 | inactive
10 | COc1ccc([C@H]2CC(=O)C=C(c3ccc4cc[nH]c4c3)C2)cc1 | inconclusive: 3.16 µM [activator, single point]
11 | O=C(O)c1cccc(Nc2ncnc3sccc23)c1 | inconclusive: 5.62 µM [activator, single point]
12 | O=[N+]([O-])c1ccc(Oc2cnc3ccccc3n2)cc1 | inconclusive: 15.8 µM [activator, partial curve]
13 | COc1ccc(C)cc1-n1nnnc1SCc1cc(=O)n2cc(C)ccc2n1 | inconclusive: 0.562 µM [activator, full curve, poor fit]
14 | Cc1cccc(N(C(=O)Cn2nnc3ccccc32)C(C(=O)NC(C)(C)C)c2ccsc2)c1 (stereo unspecified) | inconclusive: 12.6 µM [activator, partial curve]
15 | COc1ccc(C(=O)Nc2ccc(C)cc2C(=O)c2ccccc2)cc1 | inconclusive: 14.1 µM [activator, single point]
16 | COc1cnn(-c2ccc(Br)cc2)c(=O)c1SCc1ccccc1 | inconclusive: 11.2 µM [activator, partial curve]
17 | COC(=O)c1cc(C#N)c(Oc2cccc(C)c2C)nc1C | inconclusive: 11.2 µM [activator, partial curve]
18 | CC(C)N1C(=O)S/C(=C/c2ccc(Sc3nc4ccccc4[nH]3)o2)C1=O | inconclusive: 12.6 µM [activator, partial curve]
19 | COc1ccc(C2=NN(c3ccc(C(=O)O)cc3)C(c3ccc(OC)c(OC)c3)C2)cc1 (stereo unspecified) | inconclusive: 14.1 µM [activator, single point]
20 | S=C(NCCN1CCOCC1)N1CCN(c2cccc(Cl)c2)CC1 | inactive
21 | COc1ccc2oc(=O)c(-c3csc(Nc4ccc(O)cc4)n3)cc2c1 | active: 15.8 µM
22 | Cc1nc(COc2ccccc2Cl)sc1-c1ccnc(N)n1 | inactive
23 | CC(C)[C@H](NC(=O)c1ccco1)C(=O)NCc1ccccc1 | inconclusive: 35.5 µM [activator, partial curve]
24 | CCc1ccc(C2C(C#N)=C(N)C(C#N)(C#N)C3=CCC(C(C)(C)C)CC32)cc1 (stereo unspecified) | inconclusive: 31.6 µM [activator, single point]

Reprinted: nos. 2–3
Row | Structure (SMILES) | Potency
2 | CCOc1ccc(NC(=O)CN(c2ccc(C)cc2)S(=O)(=O)c2c(C)nn(C)c2C)cc1 | inconclusive: 6.31 µM [activator, partial curve]
3 | O=C(N/N=C/c1ccncc1)c1ccccc1OCc1ccc(Br)cc1 | inconclusive: 22.4 µM [activator, single point]

(cont.)

Row | Structure (SMILES) | Potency
25 | O=C(NCC(c1ccco1)N1CCc2ccccc21)c1cccc(F)c1 (stereo unspecified) | inconclusive: 17.8 µM [activator, single point]
26 | CC(=O)NC(CC(=O)NCCN1C(=O)S/C(=C\c2ccccc2)C1=O)c1ccccc1 (stereo unspecified) | inconclusive: 5.62 µM [activator, single point]
27 | CCc1cccc(OCC(=O)Nc2ccc(C)c(S(=O)(=O)N3CCCCCC3)c2)c1 | inconclusive: 35.5 µM [activator, single point]
28 | CC1=C(C)CC(C(=O)NNC(=O)c2csc3c2CCC(C(C)(C)C)C3)C(C(=O)O)C1 (stereo unspecified) | inconclusive: 7.08 µM [activator, partial curve]
29 | O=C(CCCN1C(=O)c2ccccc2C1=O)NCCc1ccc(OC(F)F)cc1 | inactive
30 | Cc1cc(C)cc(NC(=S)NCc2cccs2)c1 | inactive
31 | CC(=O)c1ccc(N2CCN(S(=O)(=O)c3ccc4c(c3)CC(C)N4C(=O)C3CC3)CC2)cc1 (stereo unspecified) | inactive
32 | Cc1nc(SCC(=O)Nc2ccc(Cl)cc2[N+](=O)[O-])nc(C)c1C | inconclusive: 22.4 µM [activator, single point]
33 | O=C(CSc1ccc2nnc(-c3ccncc3)n2n1)Nc1ccc2c(c1)OCCO2 | inactive
34 | Cc1ccc2oc(=O)c(-c3ccc(O)cc3)c(C)c2c1 | inconclusive: 12.6 µM [activator, single point]
35 | COC(=O)[C@@]1(Cc2ccc(F)cc2)[C@H]2c3cc(C(=O)N(C)C)n(Cc4ccccc4)c3C[C@H]2CN1C(=O)c1ccccc1 | inconclusive: 35.5 µM [activator, single point]
36 | CC(=O)c1ccc(Nc2cc(C)nc3c(C)cc(C)cc23)cc1 | inactive
37 | COC(=O)c1sccc1NC(=O)Nc1ccc(OC)c(OC)c1 | inactive
38 | COc1ccccc1C(=O)c1c(C)c(CCC#N)n2ccccc12 | inconclusive: 11.2 µM [activator, partial curve]
39 | O=C(CCN1C(=O)CSc2ccccc21)Nc1ccc(OC(F)(F)F)cc1 | inconclusive: 35.5 µM [activator, single point]
40 | CCN1CCN(CC(O)COc2ccc3c(c2)CCC3)CC1 (stereo unspecified) | inactive
41 | CC(C)(Oc1ccc(Cl)cc1)C(=O)N1CCN(c2ccccn2)CC1 | active: 14.1 µM
42 | O=[N+]([O-])c1ccc(-c2c(-c3ccccc3)ncc3cc(F)ccc23)cc1 | inconclusive: 35.5 µM [activator, single point]
43 | CSc1nc2ccc(NS(=O)(=O)c3c(Cl)cccc3Cl)cc2s1 | inactive
44 | Fc1cccc2sc(Nc3nc4cc5c(cc4s3)OCO5)nc12 | inconclusive: 10 µM [activator, partial curve]
45 | O=C(NC1CCCCC1)C(c1ccccc1F)N(C(=O)c1csnn1)C1CCCC1 (stereo unspecified) | inconclusive: 11.2 µM [activator, partial curve]
46 | O=c1oc2ccc(Cl)cc2nc1/C=C(\O)c1cccs1 | inactive
47 | O=S(=O)(NCCSc1ccc(Cl)cc1)c1ccc2c(c1)OCCO2 | inconclusive: 12.6 µM [activator, partial curve]
48 | CC(NC(=O)c1ccc(F)cc1)C(=O)NC1=NCCS1 (stereo unspecified) | inconclusive: 10 µM [activator, partial curve]

Two records picked at random from the list so far, as already listed:
Row | Structure (SMILES) | Potency
10 | COc1ccc([C@H]2CC(=O)C=C(c3ccc4cc[nH]c4c3)C2)cc1 | inconclusive: 3.16 µM [activator, single point]
17 | COC(=O)c1cc(C#N)c(Oc2cccc(C)c2C)nc1C | inconclusive: 11.2 µM [activator, partial curve]

Going on with the list.

Row | Structure (SMILES) | Potency
49 | COc1ccc(-c2nc3n(c2C)Cc2ccccc2-3)cc1 | inactive
50 | Oc1ccc(Br)cc1CNc1cnc2ccccc2c1 | inactive
51 | CCc1ccc(/C=C(\C)C(=O)c2c(C)cc(C)[nH]c2=O)cc1 | inconclusive: 22.4 µM [activator, single point]
52 | O=C1[C@H]2[C@H](ON3CCCC[C@H]23)C(=O)N1c1ccc(Cl)cc1 | inactive
53 | COCCOC(=O)c1c(C)oc2ccc(OCc3ccccc3)cc12 | active: 11.2 µM
54 | c1ccc(Cn2nnc3c(NCCN4CCOCC4)ncnc32)cc1 | inconclusive: 6.31 µM [activator, single point]
55 | C=CCN(CC=C)C(=S)NC(=O)c1ccc(C)c(Br)c1 | inconclusive: 22.4 µM [activator, single point]
56 | CCCCNc1c2c3c(cccc3n(C)c1=O)C(=O)c1ccccc1-2 | inconclusive: 22.4 µM [activator, single point]
57 | CC(C)Oc1ccccc1C1CC(=O)Nc2cc3c(cc21)OCCO3 (stereo unspecified) | inconclusive: 12.6 µM [activator, partial curve]
58 | Cc1cccc(NC(=O)c2ccc(Cl)c(S(=O)(=O)N3CCc4ccccc43)c2)n1 | inconclusive: 11.2 µM [activator, partial curve]
59 | COC(=O)Cc1c(C)c2ccc(OC(C)C)cc2oc1=O | inactive
60 | CC(C)NC(=O)C1CCN(C(=O)c2cc3sccc3n2Cc2ccc(F)cc2)CC1 | inactive
61 | COc1ccc(C2c3c(ncn(CCCO)c3=N)Oc3ccc4ccccc4c32)cc1 (stereo unspecified) | inconclusive: 35.5 µM [activator, single point]
62 | COc1ccccc1CNS(=O)(=O)c1ccc2c(c1)CC(C)N2C(=O)C1CCC1 (stereo unspecified) | inactive
63 | Nc1nc(F)nc2c1ncn2[C@@H]1O[C@H](CO)[C@@H](O)[C@@H]1O | inactive
64 | Cc1c(OCC(F)(F)F)ccnc1CS(=O)c1nc2ccccc2[nH]1 (stereo unspecified) | inconclusive: 23.1 µM [activator, single point]
65 | On1cnnc1-c1ccccc1 | inactive
66 | O=c1c2c3c(sc2nc2n1CCCC2)CCCC3 | inconclusive: 11.2 µM [activator, partial curve]
67 | Cc1cccc(Sc2ccc([N+](=O)[O-])cc2[N+](=O)[O-])n1 | inconclusive: 17.8 µM [activator, single point]
68 | O=C(Cn1ncc2c1-c1ccccc1OC2)N1CCN(c2ccccn2)CC1 | inactive
69 | COc1ccc(CN(C(=O)CN2C(=O)COc3ccccc32)C2CCCC2)c(OC)c1 | inconclusive: 14.1 µM [activator, partial curve]
70 | S=C(Nc1cccc(Br)c1)c1ccccc1 | inconclusive: 28.2 µM [activator, single point]
71 | O=C(c1ccc(-c2ccccc2)c(F)c1)C1CCCN(C(=O)c2cncs2)C1 (stereo unspecified) | inconclusive: 25.1 µM [activator, single point]
